This is an account of results in article PMC4546416.

The chains behind the UniProt entries cited, without tags or fusion partners. Where a name states a change or a piece, a line headed by the entry shows the natural chain unless it says otherwise.
UniProt O54992: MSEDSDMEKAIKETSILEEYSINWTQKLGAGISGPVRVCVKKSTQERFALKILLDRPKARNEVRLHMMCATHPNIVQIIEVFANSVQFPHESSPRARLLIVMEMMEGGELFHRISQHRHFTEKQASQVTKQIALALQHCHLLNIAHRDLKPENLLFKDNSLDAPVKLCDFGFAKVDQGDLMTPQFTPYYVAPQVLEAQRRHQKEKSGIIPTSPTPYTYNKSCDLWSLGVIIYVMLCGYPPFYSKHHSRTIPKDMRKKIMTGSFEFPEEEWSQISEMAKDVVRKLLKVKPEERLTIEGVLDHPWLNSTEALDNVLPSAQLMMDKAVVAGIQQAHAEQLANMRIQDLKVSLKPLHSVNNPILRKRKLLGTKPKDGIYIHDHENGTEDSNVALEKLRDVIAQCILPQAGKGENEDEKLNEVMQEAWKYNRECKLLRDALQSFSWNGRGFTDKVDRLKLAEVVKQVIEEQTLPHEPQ
UniProt Q16659: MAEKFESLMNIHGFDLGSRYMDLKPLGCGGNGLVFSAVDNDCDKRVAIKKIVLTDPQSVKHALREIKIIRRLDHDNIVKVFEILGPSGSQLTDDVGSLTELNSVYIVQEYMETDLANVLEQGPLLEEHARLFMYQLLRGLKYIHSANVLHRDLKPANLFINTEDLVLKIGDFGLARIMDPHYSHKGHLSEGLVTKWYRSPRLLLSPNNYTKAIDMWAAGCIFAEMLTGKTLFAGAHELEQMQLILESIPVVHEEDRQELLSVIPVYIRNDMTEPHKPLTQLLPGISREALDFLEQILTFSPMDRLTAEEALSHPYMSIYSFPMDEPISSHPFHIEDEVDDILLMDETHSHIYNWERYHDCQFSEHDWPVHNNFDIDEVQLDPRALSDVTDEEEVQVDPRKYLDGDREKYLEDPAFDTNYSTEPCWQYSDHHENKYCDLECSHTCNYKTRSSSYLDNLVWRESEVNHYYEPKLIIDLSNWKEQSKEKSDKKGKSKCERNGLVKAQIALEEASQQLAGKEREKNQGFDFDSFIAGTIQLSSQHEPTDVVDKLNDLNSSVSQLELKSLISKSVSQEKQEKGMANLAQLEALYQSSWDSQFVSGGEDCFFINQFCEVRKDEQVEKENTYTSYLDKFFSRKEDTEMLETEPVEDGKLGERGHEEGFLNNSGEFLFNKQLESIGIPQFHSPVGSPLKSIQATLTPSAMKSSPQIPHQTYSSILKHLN

These are yes or no findings as the source states them, for the method shown. In cells and extracts the contact can be indirect. Binding calls can cover weak binding; strength is not graded here.

The assay has as its target GFP-tagged MK5/PRAK-Δex6 (exon 6 deletion mutant) (mouse) (UniProt O54992). Briefly: co-IP; GFP-MK5/PRAK or its Δex6 / Δex8 mutants co-expressed with His-ERK3 in HEK293 cells; lysates (10 mM Tris/HCl pH 7.5, 150 mM NaCl, 0.5 mM EDTA, 0.5% NP-40, then diluted) incubated with GFP nanobodies on M-270 epoxy magnetic beads, 1 h at 4°C; washes up to 300 mM NaCl; ERK3 seen by Coomassie stain and by Western blot against ERK3.

On to “His-ERK3 (from UniProt Q16659 1-721) (enzyme)”, for which the binding result is on record as “binds”.
